Measurements as given in PubChem BioAssay AID2685 (National Center for Advancing Translational Sciences (NCATS), 2010).
Some of the results follow. These are further read-outs of the screen, such as a control signal, another cell line or another target. No call is given for them. The list favours compounds with an active or inconclusive main result. Words in brackets tell the shape of the fitted curve; partial curves, single points and poor fits give uncertain potencies.

Experiment: qHTS Assay for Lipid Storage Modulators in Drosophila S3 Cells;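 as to cell number change: cells counted by Cell Tracker Red CMTPX staining in the red channel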
Conditions: BODIPY lipid droplet fluorescence, 18-24 h; for cell number change: measured here: cell count max response, cells fed with added oleic acid
Procedure, shortened: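 Laser-scanning cytometry quantifies lipid droplet accumulation (500–530 nm total intensity; droplet/cell object ratio) in oleic acid-fed (400 uM added) Drosophila S3 cells treated with a concentration series. 20 uM Triacsin C defined 100% inhibition.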

[1] = measured here: cell number channel AC50, cells fed with added oleic acid
[2] = measured here: lipid fluorescence (Fed channel) AC50, cells fed with added oleic acid

| Compound | cell number change [%] | AC50 [1] | AC50 [2] |
| --- | --- | --- | --- |
| COc1ccc(C(c2nnnn2Cc2ccccc2)N2CCN(c3nc4ccccc4s3)CC2)cc1 (configuration not stated) | 16.8 | 0.366 µM [rising, full curve, poor fit] | 0.517 µM [rising, full curve] |
| O=C(Cn1ncn2c(cc3sccc32)c1=O)NC1CCCC1 | -21.8 |  | 0.58 µM [falling, single point] |
| CC(C)NS(=O)(=O)c1ccc(CCC(=O)O)cc1 | -10.3 |  | 6.51 µM [falling, single point] |
| COCCCNC(=O)CN(c1ccc(OC)cc1)S(=O)(=O)c1ccc(NC(C)=O)cc1 | -24.4 | 0.00461 µM [falling, full curve, poor fit] |  |
| COc1ccc(N=Nc2ccc(O)c3ncccc23)cc1 | -17.4 |  | 14.6 µM [falling, partial curve] |
| COc1ccccc1CNC(=O)COC(=O)COc1ccccc1F | 3.48 |  |  |
| CCN(C(=O)C(C)OC(=O)C1C(C(=O)OC)=C(C)NC(C)=C1C(=O)OC)c1ccccc1 (configuration not stated) | -19.9 |  | 16.4 µM [falling, single point] |
| CCOc1ccc(C(=O)/C=C/Nc2ccc(S(=O)(=O)Nc3cc(C)nc(C)n3)cc2)cc1 | 5.13 |  |  |
| CC(C)(C)OC(=O)CNC(=O)c1nc[nH]c1C(=O)N1CCc2ccccc2C1 | 10.8 |  |  |
| CCCc1c(C(=O)N/N=C/c2cccs2)nnn1-c1nonc1N | 16.8 |  | 0.58 µM [rising, single point] |
| COc1ccc(CNCCC(c2ccc(OC(C)C)cc2)c2ccccc2OC)cc1OC (configuration not stated) | -67.2 | 29.1 µM [falling, single point] | 29.1 µM [falling, single point] |
| Cc1cc(C(=O)NCc2csc(-c3ccccc3)n2)no1 | 33.9 | 0.92 µM [rising, full curve, poor fit] | 29.1 µM [rising, single point] |
| O=C(Nc1ccc2c(c1)OCO2)c1ccc(Cl)cc1Cl | 23.2 |  |  |
| Cc1ccc(Oc2c(C(N)=O)cc([N+](=O)[O-])cc2[N+](=O)[O-])cc1 | -81 | 20.6 µM [falling, partial curve] | 29.1 µM [falling, single point] |
| Cc1cccc(OCCOCCN2CCNCC2)c1C | -18.4 |  | 0.00461 µM [rising, full curve, poor fit] |
| COc1ccc(NC(=O)c2cccc(NC(=O)C3C4CC5OC(=O)C3C5C4)c2)c(OC)c1 (configuration not stated) | 169 | 9.2 µM [rising, partial curve] | 1.46 µM [rising, partial curve] |
| COc1ccccc1NCc1cc(=O)oc2c(C)c(O)ccc12 | 13.9 |  | 0.231 µM [falling, full curve, poor fit] |
| O=C1/C(=C\Nc2ccc(OC(F)(F)F)cc2)CCN1c1ncccn1 | 12.5 |  | 29.1 µM [rising, single point] |
| COc1cccc2cc(C(=O)NCC3CCCO3)c(=O)oc12 (configuration not stated) | 2.89 |  | 4.61 µM [rising, full curve] |
| Cc1ccccc1-c1cc2nc(C)c(C)c(=O)n2[nH]1 | -1.75 |  | 6.51 µM [rising, single point] |

| Compound | cell number change [%] | AC50 [1] | AC50 [2] |
| --- | --- | --- | --- |
| COc1ccc(CN2C(=O)c3cccnc3C2=O)cc1S(=O)(=O)N1CCOc2ccc(C)cc21 | -35 | 25.9 µM [falling, single point] | 10.3 µM [falling, partial curve] |
| CN(c1ccc(C(=O)Nc2ccc3c(c2)OCCO3)cc1)S(C)(=O)=O | 83.9 | 23.1 µM [rising, single point] |  |
| CCOC(=O)c1cc(-c2ccncc2)nc2c1c(C)nn2-c1ccccn1 | -19.5 |  | 1.84 µM [rising, full curve] |
| O=C(Nc1ccc(Cl)cc1C(=O)Nc1ccccn1)c1ccco1 | 10.4 |  | 4.11 µM [rising, full curve] |
| CCN(CC)S(=O)(=O)c1cc(NC(=O)c2ccc3c(c2)NC(=O)C(C)S3)ccc1C (configuration not stated) | 3.23 |  | 0.92 µM [falling, partial curve] |
| O=C(/C=C/c1ccccc1)N1CCN(c2ccccn2)CC1 | 1.39 |  | 29.1 µM [rising, single point] |
| CCC1CCC2(CC1)NC(CO)(CO)CO2 (configuration not stated) | 38.5 | 3.26 µM [rising, full curve, poor fit] |  |
| CC(C)[C@H](NC(=O)c1ccco1)C(=O)OCC(=O)N1CC(=O)Nc2ccccc21 | 26.4 | 3.26 µM [rising, single point] |  |
| Cc1cc(F)ccc1S(=O)(=O)Nc1ncnc2scc(-c3ccc(F)cc3)c12 | -42.3 | 32.6 µM [falling, single point] | 18.4 µM [falling, single point] |
| Cc1cc(C(=O)NCc2ccccc2)c(=O)[nH]c1C |  |  | 0.0058 µM [falling, full curve, poor fit] |
| CN1C(=O)CSc2ccc(NC(=O)N3CCC(N4CCCCC4)CC3)cc21 | -0.36 |  | 6.51 µM [falling, partial curve, poor fit] |
| COc1ccc(NC(=O)CN2CCN(CC(=O)Nc3cc(OC)cc(OC)c3)CC2)cc1 |  |  | 6.51 µM [rising, partial curve] |
| Cc1ccc(C)c(NC(=O)CN(C)C(C)C(=O)N2CC(C)CC(C)C2)c1 (configuration not stated) | 31.7 | 1.64 µM [rising, full curve, poor fit] |  |
| CCOc1cccc(-c2nnc3sc(-c4cc(OC)c(OC)c(OC)c4)nn23)c1 | -1.66 |  |  |
| CC(OC(=O)Cn1cnc2c1c(=O)n(C)c(=O)n2C)C(=O)NCc1ccccc1 (configuration not stated) | -0.723 | 6.51 µM [falling, single point] |  |
| O=C(O)CCCC(=O)Nc1ccc(Sc2ccc([N+](=O)[O-])cc2)cc1 |  |  | 0.651 µM [rising, full curve] |
| Cc1cccc[n+]1CC(=O)N1c2ccccc2Sc2ccccc21 | 2.74 |  | 0.184 µM [rising, full curve, poor fit] |
| CC12CCC(=O)N1C(C(=O)OCC(=O)Nc1ccc(Cl)c(Cl)c1)CS2 (configuration not stated) | 23.1 |  | 0.82 µM [falling, full curve, poor fit] |
| CCOc1cc(CNn2cn[nH]c2=S)cc(Cl)c1OCc1ccccc1F | -54 | 16.4 µM [falling, partial curve] | 14.6 µM [falling, partial curve] |
| O=C(CC(=O)c1ccccc1O)c1ccc(F)cc1 | -3.65 | 2.06 µM [rising, partial curve] | 23.1 µM [falling, partial curve] |

Some values from above.
In cell number change [%], `CCN(C(=O)C(C)OC(=O)C1C(C(=O)OC)=C(C)NC(C)=C1C(=O)OC)c1ccccc1` (configuration not stated) shows -19.9
In cell number change [%], `CC(C)(C)OC(=O)CNC(=O)c1nc[nH]c1C(=O)N1CCc2ccccc2C1` shows 10.8
In AC50 [1], `O=C(CC(=O)c1ccccc1O)c1ccc(F)cc1` shows 2.06 µM [rising, partial curve]
In AC50 [1], `Cc1ccc(Oc2c(C(N)=O)cc([N+](=O)[O-])cc2[N+](=O)[O-])cc1` shows 20.6 µM [falling, partial curve]

Additional compounds follow.

| Compound | cell number change [%] | AC50 [1] | AC50 [2] |
| --- | --- | --- | --- |
| O=C(CSc1ncccc1-c1nc2ccccc2[nH]1)NCc1ccco1 | -1.9 |  | 0.0517 µM [rising, full curve] |
| O=C(NNC(=O)c1cccnc1)Nc1cccc2ccccc12 | 37.5 |  |  |
| Cc1ccc(-n2nc(C)c3cc(C(=O)O)sc32)cc1 | 25.1 | 6.51 µM [falling, single point] | 6.51 µM [falling, single point] |
| CCOc1cc(C(=O)OCC(=O)Nc2c(C)cccc2C)ccc1OCC(=O)N1CCOCC1 |  | 0.731 µM [falling, single point] | 29.1 µM [rising, single point] |
| O=C(O)C1C2C=CC(C2)C1C(=O)Nc1ccccc1Br (configuration not stated) |  |  | 29.1 µM [rising, single point] |
| COc1ccc(S(=O)(=O)N2CN3CCN(C3)C2)cc1 | 37.2 | 7.31 µM [rising, partial curve, poor fit] |  |
| CCCc1cc(C(=O)NCc2ccc(OC)cc2)no1 | 6.3 |  | 6.51 µM [rising, single point] |
| CC(C)(C)NC(=O)CN(C(=O)C(=O)Nc1ccc2c(c1)OCCO2)N1CCOCC1 | 12.2 | 0.82 µM [rising, full curve, poor fit] |  |
| Cc1cnc(C(=O)OCC(=O)N2CCN(S(=O)(=O)c3ccc(Cl)cc3)CC2)cn1 | -96 | 23.1 µM [falling, partial curve] |  |
| O=C(NCCCNC(=O)c1cc(Cl)ccc1Cl)c1ccco1 | 4.76 |  | 0.206 µM [falling, single point] |
| COc1ccc(CN(CC(=O)NCc2ccccc2)C(=O)CCC(=O)Nc2ccccn2)cc1 | 17.8 |  |  |
| C=CCn1c(C(C)NC(=O)c2ccccc2)n[nH]c1=S (configuration not stated) | -18.3 | 3.26 µM [rising, partial curve, poor fit] |  |
| CC(=O)Nc1ccc(NC(=O)CCCCCN2C(=O)c3ccccc3C2=O)cc1 | 55 | 29.1 µM [rising, single point] |  |
| CCOC(=O)N1CCN(C(=O)c2oc3ccc(S(=O)(=O)N4CC(C)CC(C)C4)cc3c2C)CC1 (configuration not stated) | -15.4 |  | 16.4 µM [falling, single point] |
| CS(=O)(=O)N(CC(=O)N1CCCC1)c1ccc(Cl)cc1 | 6.59 |  | 6.51 µM [rising, partial curve] |
| COC(=O)/C(=C\Nc1ccc(Cl)cc1Cl)NC(=O)c1ccc(Cl)cc1Cl | -42.9 | 18.4 µM [falling, partial curve, poor fit] | 16.4 µM [falling, single point] |
| COc1ccc(C2(CNC(=O)c3ccc(OC)c([N+](=O)[O-])c3)CCCCC2)cc1OC | -38.1 | 0.00461 µM [falling, full curve, poor fit] | 0.731 µM [rising, single point] |
| COc1ccccc1OCCC(=O)NNC(=O)c1ccccc1F | -23.7 |  | 23.1 µM [falling, partial curve, poor fit] |
